Positions count from the first letter of the chain named. No constants are given. Whether binding was seen depends on the method and setting. Binding seen in cells or lysates may run through a third protein. Some binding calls cover weakened binding; strength is not graded here. For some of these results: Sequences can lack the tags named with a protein.
Experiments:
Test in all cases: co-IP
[1] = biological target: T1, Flag-mZBP1 expressed in MEFs (mouse) (UniProt Q9QY24)
T1 sequence: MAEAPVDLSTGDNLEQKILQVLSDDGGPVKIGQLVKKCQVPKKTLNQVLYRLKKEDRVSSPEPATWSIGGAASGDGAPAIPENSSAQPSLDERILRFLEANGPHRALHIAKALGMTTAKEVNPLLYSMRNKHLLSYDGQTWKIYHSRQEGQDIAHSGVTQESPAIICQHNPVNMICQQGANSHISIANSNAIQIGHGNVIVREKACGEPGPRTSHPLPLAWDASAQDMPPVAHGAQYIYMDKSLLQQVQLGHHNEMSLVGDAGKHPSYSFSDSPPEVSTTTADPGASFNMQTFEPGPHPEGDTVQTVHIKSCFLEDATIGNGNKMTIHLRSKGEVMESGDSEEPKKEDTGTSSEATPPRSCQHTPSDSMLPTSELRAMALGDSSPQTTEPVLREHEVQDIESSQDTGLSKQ

Chains of the proteins cited; added tags and fusions are not shown.
UniProt Q9QZL0: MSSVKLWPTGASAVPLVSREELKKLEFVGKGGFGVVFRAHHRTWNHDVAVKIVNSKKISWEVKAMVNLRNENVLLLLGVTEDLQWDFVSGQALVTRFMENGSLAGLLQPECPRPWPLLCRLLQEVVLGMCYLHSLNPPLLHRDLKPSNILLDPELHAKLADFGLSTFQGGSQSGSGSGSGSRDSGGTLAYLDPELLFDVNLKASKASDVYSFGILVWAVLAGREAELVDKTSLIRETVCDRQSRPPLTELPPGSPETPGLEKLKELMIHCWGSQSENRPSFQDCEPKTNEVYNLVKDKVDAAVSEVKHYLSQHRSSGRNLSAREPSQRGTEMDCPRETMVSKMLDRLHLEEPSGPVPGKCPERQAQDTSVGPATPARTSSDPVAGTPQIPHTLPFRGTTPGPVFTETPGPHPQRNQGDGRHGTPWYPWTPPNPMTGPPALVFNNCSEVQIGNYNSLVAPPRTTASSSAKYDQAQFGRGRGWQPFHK
UniProt Q13546: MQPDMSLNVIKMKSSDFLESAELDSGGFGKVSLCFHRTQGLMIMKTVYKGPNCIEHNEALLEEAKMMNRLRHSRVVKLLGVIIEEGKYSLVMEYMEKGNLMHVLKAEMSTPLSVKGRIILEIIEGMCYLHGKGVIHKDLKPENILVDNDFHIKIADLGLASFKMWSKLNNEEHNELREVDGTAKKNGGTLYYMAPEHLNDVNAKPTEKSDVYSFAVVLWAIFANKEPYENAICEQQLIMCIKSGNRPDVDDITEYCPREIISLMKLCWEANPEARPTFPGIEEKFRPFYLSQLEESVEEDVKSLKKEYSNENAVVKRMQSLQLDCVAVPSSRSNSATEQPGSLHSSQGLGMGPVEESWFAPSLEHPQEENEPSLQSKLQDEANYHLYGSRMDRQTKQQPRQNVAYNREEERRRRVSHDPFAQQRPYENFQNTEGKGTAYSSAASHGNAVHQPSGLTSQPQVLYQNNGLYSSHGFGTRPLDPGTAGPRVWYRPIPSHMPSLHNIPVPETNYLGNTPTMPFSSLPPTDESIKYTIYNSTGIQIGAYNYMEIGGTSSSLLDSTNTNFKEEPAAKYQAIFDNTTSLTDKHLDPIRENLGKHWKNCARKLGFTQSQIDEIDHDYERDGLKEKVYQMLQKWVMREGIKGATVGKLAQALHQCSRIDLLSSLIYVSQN

[2] = biological target: T2, FLAG-tagged human ZBP1 (Flag-hZBP1) (human) (UniProt Q9H171)
T2 sequence: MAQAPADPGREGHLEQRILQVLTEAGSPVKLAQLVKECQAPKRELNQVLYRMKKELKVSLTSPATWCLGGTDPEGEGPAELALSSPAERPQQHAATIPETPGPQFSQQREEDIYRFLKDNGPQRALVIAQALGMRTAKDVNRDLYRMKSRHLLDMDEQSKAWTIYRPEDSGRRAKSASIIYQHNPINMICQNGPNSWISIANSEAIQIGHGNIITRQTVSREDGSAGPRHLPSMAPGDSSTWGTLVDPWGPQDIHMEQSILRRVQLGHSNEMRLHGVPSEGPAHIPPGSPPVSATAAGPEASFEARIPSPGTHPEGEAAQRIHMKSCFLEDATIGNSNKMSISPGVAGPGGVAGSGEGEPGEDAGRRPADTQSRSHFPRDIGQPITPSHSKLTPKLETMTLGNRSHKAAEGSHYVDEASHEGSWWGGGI

[3] = biological target: T3, hZBP1 mutant RHIM B (mutRHIMB) (human) (UniProt Q9H171)
T3 sequence: T2 sequence with V264A, Q265A, L266A, G267A

[4] = biological target: T4, hZBP1 mutant Zα1 (mutZα1) (human) (UniProt Q9H171)
T4 sequence: T2 sequence with N46D, Y50A

RIPK3 (mouse, endogenous in MEFs) (from UniProt Q9QZL0 1-486)
binding [1]: binds

mouse RIPK3 (mRIPK3) reconstituted in HT29-hZBP1 (RIPK3 KO) cells (from UniProt Q9QZL0 1-486)
binding [2]: binds

RIPK1 (human, endogenous) (from UniProt Q13546 1-671)
binding [3]: binds | binding [4]: binds

From paper doi:10.1101/2024.09.17.613393
